# In PubChem BioAssay AID1347076 (National Center for Advancing Translational Sciences (NCATS), 2019):
# Hit rate of the full screen: of about 400,000 compounds, about 13,000 (3.2%) were called active. This list was built around the results that the source calls inconclusive (neither active nor inactive); the mix of calls is not that of the screen. Calls come from the whole dose curve; as a rule, active = well fitted cell-killing curve with a large enough effect; inconclusive = small, poorly fitted or top-dose-only effect, or effect the other way; inactive = flat fitted curve, though single readings scatter. Potencies of inconclusive entries are doubtful fits and often do not repeat.
# Experiment: qHTS assay for MDR1-selective chemotherapeutics: Primary screen using the drug-selected MDR subline cells KB-V1; note: nearly all actives have a fitted effect of over 60% in size
# Conditions: KB-V1 MDR cells viability, CellTiter-Glo, 72 h; activity change, negative = cytotoxicity: at 46.1 µM (top of the series)
# How it was run: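 KB-V1 MDR subline cells in DMEM (phenol-red free, 10% FBS) exposed to compounds in qHTS concentration series for 72 h at 37 degrees C. Viability read by CellTiter-Glo luminescence; concentration-effect curves fitted after normalization and correction.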
# % is set by controls: 0 for no effect and ±100 for the full control effect; potency is the fitted concentration of half-maximal effect.
SMILES,"activity change, negative = cytotoxicity",Potency
CCOc1ccc(C(=O)NNC2CC(=O)N(Cc3ccc(Cl)cc3)C2=O)cc1OC (stereo not given),inactive: -1.47%,
Cc1nc2ccccn2c1C(=O)NNC(=O)Nc1ccccc1,inconclusive: 32.1%,
O=C1C(Cc2ccccc2)Nc2ncnc(N3CCCCC3)c2N1Cc1ccc(Br)cc1 (stereo not given),,"inconclusive: 8.2 µM [cytotoxic, partial curve, poor fit]"
COc1ccc(C(=O)c2cnc3ccccc3c2-c2ccccc2)cc1,,active: 18.4 µM
N#C/C(=C(O)\C=C\c1ccccc1)c1nc2ccccc2[nH]1,,"inconclusive: 11.6 µM [cytotoxic, partial curve]"
Cc1ccc(N(C(=O)CNC(=O)c2ccco2)C(C(=O)NCC2CCCO2)c2ccccc2)cc1C (stereo not given),,"inconclusive: 18.4 µM [cytotoxic, single point]"
CCCCCCCn1c(=N)n(CC(O)c2ccco2)c2ccccc21 (stereo not given),,"inconclusive: 10.3 µM [cytotoxic, partial curve]"
CC(C)C[C@@H](CN1CCCC1CN1C(=S)NC[C@@H]1Cc1ccc(O)cc1)N1C[C@H](Cc2ccc(O)cc2)N(CCc2ccccc2)C1=S (stereo not given in full),,"inconclusive: 10.3 µM [cytotoxic, partial curve, poor fit]"
CC(C)CC1C(=O)N(Cc2cn(CCC3OCCO3)nn2)CCS(=O)(=O)N1Cc1ccc(-c2cccc(N(C)C)c2)cc1 (stereo not given),,"inconclusive: 16.4 µM [cytotoxic, single point]"
Cc1ccnc(NC(=O)c2ccc(C(=O)c3ccccc3)cc2)c1,,active: 20.6 µM
Cc1cccc(NC(=O)c2nc[nH]c2C(=O)NCCCCCNC(=O)OC(C)(C)C)c1,,"inconclusive: 18.4 µM [cytotoxic, single point]"
CSc1nnc(C)c(/C=C/Nc2ccc(F)cc2)n1,,"inconclusive: 4.61 µM [cytotoxic, full curve]"
CCC(C(=O)N1CCN(c2cccc(Cl)c2)CC1)c1ccccc1 (stereo not given),,"inconclusive: 29.1 µM [cytotoxic, single point]"
CCOC(=O)C1CCN(Cc2ccc(O)c3ncccc23)CC1,,active: 16.4 µM
O=C(Oc1ccccc1C(=O)N1CCOCC1)c1ccc(Br)cc1,inactive: 2.74%,
O=C(NCc1c(Cl)cccc1Oc1ccccc1)c1ccccc1,,active: 11.6 µM
CC(Oc1ccc2c3c(c(=O)oc2c1)CCCC3)C(=O)NCCN1CCOCC1 (stereo not given),inactive: -0.114%,
CCCCOC(=O)c1ccc(N)cc1,inactive: 0.685%,

# Complete entries from above:
# `COc1ccc(C(=O)c2cnc3ccccc3c2-c2ccccc2)cc1` is listed as Potency: active: 18.4 µM
# `Cc1ccnc(NC(=O)c2ccc(C(=O)c3ccccc3)cc2)c1` is listed as Potency: active: 20.6 µM
# `CSc1nnc(C)c(/C=C/Nc2ccc(F)cc2)n1` is listed as Potency: inconclusive: 4.61 µM [cytotoxic, full curve]

# The listing continues.

SMILES,"activity change, negative = cytotoxicity",Potency
S=c1nc[nH]c2c1ncn2C1CCCO1 (stereo not given),,"inconclusive: 4.61 µM [cytotoxic, full curve, poor fit]"
CCN(CC)C(C(=O)Nc1ccc(C(C)C)cc1)c1ccc2c(c1)OCO2 (stereo not given),,"inconclusive: 10.3 µM [cytotoxic, partial curve, poor fit]"
COc1ccc(CCn2c(S)nc3ccccc3c2=O)cc1,inactive: 0.677%,
O=C(NCCO)c1c(-c2ccc3c(c2)OCO3)noc1-c1ccsc1,inactive: 0.0002%,
CC1=C(C(=O)NCc2cccc(F)c2)C2(CCCCC2)OC1=O,inactive: 13.4%,
COc1ccc2sc(-c3ccc(SC)cc3)c(-c3ccc(O)cc3)c2c1,,"inconclusive: 29.1 µM [cytotoxic, single point]"
Oc1c(Br)cc(/C=N/n2c(-c3ccccc3)n[nH]c2=S)c(O)c1Br,,"inconclusive: 20.6 µM [cytotoxic, single point]"
COc1cccc(C(=O)C2CCCN(Cc3cn(C)nc3-c3ccccc3)C2)c1 (stereo not given),inactive: -6.1%,
CC1(c2ccc(Cl)cc2)NC(=O)CS1 (stereo not given),inactive: -0.252%,
Fc1ccc(Nc2ccnc(C(F)(F)F)c2)cc1,inconclusive: -9.99%,
O=C(COc1ccc(F)cc1)Nc1nc(-c2ccccn2)cs1,,active: 5.8 µM
Cc1ccc(-c2ccc(CN3C(C)C(=O)N(Cc4cn(CCC5OCCCO5)nn4)CCS3(=O)=O)cc2)cc1 (stereo not given),,"inconclusive: 5.8 µM [rising, partial curve, poor fit]"
CC(=O)Nc1cc(-c2ccc(CO)cc2)cn2c(-c3ccc(F)cc3)cnc12,inactive: 5.61%,
CCOC(=O)c1c(C)oc2nc(C)nc(NCC3CCN(Cc4ccc(C)cc4)CC3)c12,inactive: 9.63%,
COC(=O)c1cc(S(=O)(=O)N2c3ccccc3CC2C)c[nH]1 (stereo not given),,"inconclusive: 0.0517 µM [rising, full curve]"
COc1ccc(C(=O)CSc2nnc(CCc3ccccc3)n2-c2ccccc2)cc1,,active: 9.2 µM
CC(=O)c1ccc(OC2(C)CCN(Cc3ccccc3OC(F)F)C2)cc1 (stereo not given),inactive: 1.13%,
